Test results reported in the supplement of paper PMC10689618.
The other results are listed elsewhere or left out. Repeats are few or missing, and single values can be far off.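 Labelled rat cortical synaptosomes were engulfed by primary human fetal astrocytes. Engulfment equaled a red/green ratio, corrected for calcein live-cell signal and normalized to the plate median. Compounds were toxic when calcein dropped over 30%, and reduced phagocytosis when below 70% of the median above 5 µM.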

system: Human fetal astrocytes; assay: synaptosome phagocytosis (pHrodo/calcein intensity ratio) relative to plate median of data wells; higher = more phagocytosis; settings: 2.78 µM; 24 h

| Structure (SMILES) | synaptosome phagocytosis [%] |
| --- | --- |
| CC(C(=O)O)c1ccc(C(=O)c2cccs2)cc1 (centres undefined) | 104 |
| CN1CC(=O)NC1=N | 104 |
| C=C[C@@H](C1=CC(=O)C(OC)=C(OC)C1=O)c1ccccc1 | 90.7 |
| C[C@]12CCC(=O)C=C1CC[C@@H]1[C@@H]2[C@@H](O)C[C@@]2(C)[C@H]1CC[C@]2(O)C(=O)COP(=O)(O)O | 113 |
| C[N+](C)(C)C[C@H](O)CC(=O)[O-] | 106 |
| C[C@H]1COC2=C1C(=O)C(=O)c1c2ccc2c1CCCC2(C)C | 71.2 |
| NC[C@H]1CC[C@H](C(=O)O)CC1 | 95.3 |
| COc1ccc(-c2cc(=O)c3c(O)cc(OC)c(OC)c3o2)c(OC)c1 | 156 |
| COc1cc(O)c(C(C)=O)c(O)c1 | 107 |
| COc1ccc([C@H]2Oc3cc(OC)cc(OC)c3C[C@H]2O)cc1 | 126 |
| O=C(O)[C@H](O)[C@@H](O)[C@H](O[C@@H]1O[C@H](CO)[C@H](O)[C@H](O)[C@H]1O)[C@H](O)CO | 74.9 |
| CCOc1ccc(NC(=O)CC(C)O)cc1 (centres undefined) | 133 |
| Cc1ccc(S(=O)(=O)NC(=O)NN2CCCCCC2)cc1 [Tolazamide] | 99.3 |
| c1ccc(CN(CC2=NCCN2)c2ccccc2)cc1 | 106 |
| CC(C)(C)NCC(O)c1cc(O)cc(O)c1 (centres undefined) | 104 |
| CC(C)(Oc1ccc(CCNC(=O)c2ccc(Cl)cc2)cc1)C(=O)O | 81.4 |
| O=C(O)CS | 71.3 |
| NC(=O)N1c2ccccc2CC(=O)c2ccccc21 [Trileptal] | 94.9 |
| CC(C)=CCC[C@@H](C)[C@@H]1CC[C@]2(C)C3=C(CC[C@@]12C)[C@@]1(C)CC[C@H](O)C(C)(C)[C@@H]1CC3 | 120 |
| COc1cc(C)c(C(=O)Oc2cc(C)c(C(=O)O)c(O)c2C)c(OC)c1C | 124 |

| Structure (SMILES) | synaptosome phagocytosis [%] |
| --- | --- |
| CON | 116 |
| O=C(O)Cc1cc(I)c(Oc2ccc(O)c(I)c2)c(I)c1 | 82.6 |
| CC(=O)Oc1cc(OC(C)=O)c2c(c1)O[C@H](c1ccc(OC(C)=O)c(OC(C)=O)c1)[C@H](OC(C)=O)C2 | 99.7 |
| Cc1occc(=O)c1O | 94.6 |
| CC(=O)C1CCC2C3CC=C4CC(OS(=O)(=O)O)CCC4(C)C3CCC12C (centres undefined) | 83.3 |
| CC(=O)NCCCCCC(=O)O | 105 |
| c1coc(CNc2ncnc3[nH]cnc23)c1 | 110 |
| CC(=O)Nc1ccc(S(=O)(=O)c2ccc(NC(C)=O)cc2)cc1 | 92.1 |
| O=C(O)CCNC(=O)c1ccccc1 | 139 |
| CC1(C)S[C@@H]2[C@H](NC(=O)[C@H](N)c3ccc(O)cc3)C(=O)N2[C@H]1C(=O)O | 110 |
| CC(=O)Oc1cc(OC(C)=O)c2c(c1)O[C@H](c1ccc(OC(C)=O)c(OC(C)=O)c1)[C@@H](OC(C)=O)C2 | 123 |
| COCCc1ccc(OCC(O)CNC(C)C)cc1 (centres undefined) | 86.4 |
| O=C(O)C(S)C(S)C(=O)O (centres undefined) | 87.4 |
| O=c1[nH]cnc2c1ncn2[C@@H]1O[C@H](CO)[C@@H](O)[C@H]1O | 96.2 |
| CN(C(=O)CN(CCO)CC(=O)N(C)C(C)(C)Cc1ccccc1)C(C)(C)Cc1ccccc1 | 116 |
| CC(C)C[C@@H]1NC(=O)[C@H](CCCN)NC(=O)[C@H](C(C)C)NC(=O)[C@H](Cc2ccc(O)cc2)N[C@@H](CCC(=O)O)C(=O)N[C@@H](CC(N)=O)C(=O)[C@@H](Cc2ccccc2)NC(=O)[C@H](Cc2ccccc2)NC(=O)[C@@H]2CCCN2C(=O)[C@@H](Cc2ccccc2)NC1=O | 45.3 |
| COc1cc2c(cc1OC)-c1c(oc3cc(O)cc(O)c3c1=O)CO2 | 116 |
| Oc1ccc(/C=C/c2cc(O)cc(O)c2)cc1 [5-[2-(4-hydroxyphenyl)vinyl]-1,3-benzenediol] | 91.5 |
| CC(=O)OC1CCC2(C)C3=C(CC[C@H]2C1(C)C)[C@@]1(C)CC[C@@H]([C@@H](C)CCC=C(C)C)[C@]1(C)CC3 (some centres undefined) | 83.3 |

Entries listed so far that have an aryl methoxy group:

| Structure (SMILES) | synaptosome phagocytosis [%] |
| --- | --- |
| COc1ccc(-c2cc(=O)c3c(O)cc(OC)c(OC)c3o2)c(OC)c1 | 156 |
| COc1cc(O)c(C(C)=O)c(O)c1 | 107 |
| COc1ccc([C@H]2Oc3cc(OC)cc(OC)c3C[C@H]2O)cc1 | 126 |
| COc1cc(C)c(C(=O)Oc2cc(C)c(C(=O)O)c(O)c2C)c(OC)c1C | 124 |
| COc1cc2c(cc1OC)-c1c(oc3cc(O)cc(O)c3c1=O)CO2 | 116 |
